Laboratory results from PMC3711425.
No constants are given. Whether binding was seen depends on the method and setting. Binding calls can cover weak binding; strength is not graded here. For part of these data: Binding seen in cells or lysates may run through a third protein.

Amino acid sequences for entries named in this document (tags omitted). A change or cut given only in a name is not applied to a line headed by its entry. Chains listed by the source or under a name are the forms on record and can include a tag or linker.
UniProt O95365: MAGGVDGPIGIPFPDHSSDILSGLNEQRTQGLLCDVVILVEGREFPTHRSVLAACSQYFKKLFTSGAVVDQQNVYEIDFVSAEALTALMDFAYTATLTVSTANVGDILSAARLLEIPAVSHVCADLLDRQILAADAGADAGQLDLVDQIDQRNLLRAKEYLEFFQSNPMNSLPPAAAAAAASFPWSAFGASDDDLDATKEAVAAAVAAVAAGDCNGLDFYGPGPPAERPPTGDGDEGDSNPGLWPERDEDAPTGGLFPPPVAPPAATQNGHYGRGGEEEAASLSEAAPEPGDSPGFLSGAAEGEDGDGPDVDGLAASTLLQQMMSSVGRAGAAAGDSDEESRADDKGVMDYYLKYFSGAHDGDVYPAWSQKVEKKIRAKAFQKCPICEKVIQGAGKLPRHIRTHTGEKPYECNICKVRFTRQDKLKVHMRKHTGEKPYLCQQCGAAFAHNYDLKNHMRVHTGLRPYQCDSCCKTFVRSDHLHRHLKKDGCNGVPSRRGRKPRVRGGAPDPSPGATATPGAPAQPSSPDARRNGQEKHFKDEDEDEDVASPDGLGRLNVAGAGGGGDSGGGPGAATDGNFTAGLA
UniProt Q6W2J9: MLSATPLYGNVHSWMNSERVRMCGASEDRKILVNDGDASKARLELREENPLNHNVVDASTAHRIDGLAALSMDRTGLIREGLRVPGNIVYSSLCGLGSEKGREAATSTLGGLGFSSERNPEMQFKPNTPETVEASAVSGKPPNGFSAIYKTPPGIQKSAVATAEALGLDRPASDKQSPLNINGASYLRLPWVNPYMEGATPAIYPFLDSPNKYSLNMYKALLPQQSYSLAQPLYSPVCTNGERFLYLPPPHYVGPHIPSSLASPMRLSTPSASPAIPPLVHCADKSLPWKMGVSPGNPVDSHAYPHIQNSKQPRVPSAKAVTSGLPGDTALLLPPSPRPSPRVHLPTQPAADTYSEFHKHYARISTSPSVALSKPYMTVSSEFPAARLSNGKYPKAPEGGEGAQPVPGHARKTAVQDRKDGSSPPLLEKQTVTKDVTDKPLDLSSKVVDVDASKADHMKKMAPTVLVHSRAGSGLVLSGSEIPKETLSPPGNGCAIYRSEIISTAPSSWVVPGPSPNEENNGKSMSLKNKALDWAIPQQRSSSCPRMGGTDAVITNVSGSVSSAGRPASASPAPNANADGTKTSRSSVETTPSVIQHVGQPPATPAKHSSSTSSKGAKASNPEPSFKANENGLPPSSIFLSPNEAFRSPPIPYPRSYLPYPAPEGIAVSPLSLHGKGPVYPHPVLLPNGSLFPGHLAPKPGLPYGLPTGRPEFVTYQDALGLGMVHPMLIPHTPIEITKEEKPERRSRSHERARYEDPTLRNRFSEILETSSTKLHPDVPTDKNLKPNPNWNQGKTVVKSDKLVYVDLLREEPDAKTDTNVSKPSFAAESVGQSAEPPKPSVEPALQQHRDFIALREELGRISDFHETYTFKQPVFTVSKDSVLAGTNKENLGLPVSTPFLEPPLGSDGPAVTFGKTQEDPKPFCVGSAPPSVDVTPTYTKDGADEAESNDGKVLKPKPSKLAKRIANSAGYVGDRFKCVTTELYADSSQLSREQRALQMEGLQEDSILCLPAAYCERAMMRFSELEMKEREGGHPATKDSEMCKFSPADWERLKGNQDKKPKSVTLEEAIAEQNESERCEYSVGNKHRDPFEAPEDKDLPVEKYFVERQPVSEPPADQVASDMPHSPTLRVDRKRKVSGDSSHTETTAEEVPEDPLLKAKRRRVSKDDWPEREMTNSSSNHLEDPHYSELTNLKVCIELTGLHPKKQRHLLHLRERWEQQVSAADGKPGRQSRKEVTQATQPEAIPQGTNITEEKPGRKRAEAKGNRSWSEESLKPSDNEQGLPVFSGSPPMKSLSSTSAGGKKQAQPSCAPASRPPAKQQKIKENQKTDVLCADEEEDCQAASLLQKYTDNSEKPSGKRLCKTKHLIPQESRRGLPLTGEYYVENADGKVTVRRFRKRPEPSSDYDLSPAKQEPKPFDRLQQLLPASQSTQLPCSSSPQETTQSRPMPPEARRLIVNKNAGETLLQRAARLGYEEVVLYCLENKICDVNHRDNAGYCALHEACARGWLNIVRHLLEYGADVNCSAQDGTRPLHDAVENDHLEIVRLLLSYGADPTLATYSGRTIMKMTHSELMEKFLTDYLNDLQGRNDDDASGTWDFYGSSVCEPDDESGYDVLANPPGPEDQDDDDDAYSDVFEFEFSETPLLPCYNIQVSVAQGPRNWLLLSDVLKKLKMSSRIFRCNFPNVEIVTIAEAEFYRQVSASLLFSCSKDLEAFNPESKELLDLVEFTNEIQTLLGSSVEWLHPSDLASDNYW
in vitro synthesized [35S]-methionine-labelled MBD3 (O95983-2, form named): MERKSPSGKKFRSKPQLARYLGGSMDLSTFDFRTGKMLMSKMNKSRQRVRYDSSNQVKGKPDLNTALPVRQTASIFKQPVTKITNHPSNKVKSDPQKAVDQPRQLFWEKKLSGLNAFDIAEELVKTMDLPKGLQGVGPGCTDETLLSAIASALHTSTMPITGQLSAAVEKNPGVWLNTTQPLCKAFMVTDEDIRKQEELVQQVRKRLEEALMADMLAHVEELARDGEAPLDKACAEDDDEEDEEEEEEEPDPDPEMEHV
UniProt O75376: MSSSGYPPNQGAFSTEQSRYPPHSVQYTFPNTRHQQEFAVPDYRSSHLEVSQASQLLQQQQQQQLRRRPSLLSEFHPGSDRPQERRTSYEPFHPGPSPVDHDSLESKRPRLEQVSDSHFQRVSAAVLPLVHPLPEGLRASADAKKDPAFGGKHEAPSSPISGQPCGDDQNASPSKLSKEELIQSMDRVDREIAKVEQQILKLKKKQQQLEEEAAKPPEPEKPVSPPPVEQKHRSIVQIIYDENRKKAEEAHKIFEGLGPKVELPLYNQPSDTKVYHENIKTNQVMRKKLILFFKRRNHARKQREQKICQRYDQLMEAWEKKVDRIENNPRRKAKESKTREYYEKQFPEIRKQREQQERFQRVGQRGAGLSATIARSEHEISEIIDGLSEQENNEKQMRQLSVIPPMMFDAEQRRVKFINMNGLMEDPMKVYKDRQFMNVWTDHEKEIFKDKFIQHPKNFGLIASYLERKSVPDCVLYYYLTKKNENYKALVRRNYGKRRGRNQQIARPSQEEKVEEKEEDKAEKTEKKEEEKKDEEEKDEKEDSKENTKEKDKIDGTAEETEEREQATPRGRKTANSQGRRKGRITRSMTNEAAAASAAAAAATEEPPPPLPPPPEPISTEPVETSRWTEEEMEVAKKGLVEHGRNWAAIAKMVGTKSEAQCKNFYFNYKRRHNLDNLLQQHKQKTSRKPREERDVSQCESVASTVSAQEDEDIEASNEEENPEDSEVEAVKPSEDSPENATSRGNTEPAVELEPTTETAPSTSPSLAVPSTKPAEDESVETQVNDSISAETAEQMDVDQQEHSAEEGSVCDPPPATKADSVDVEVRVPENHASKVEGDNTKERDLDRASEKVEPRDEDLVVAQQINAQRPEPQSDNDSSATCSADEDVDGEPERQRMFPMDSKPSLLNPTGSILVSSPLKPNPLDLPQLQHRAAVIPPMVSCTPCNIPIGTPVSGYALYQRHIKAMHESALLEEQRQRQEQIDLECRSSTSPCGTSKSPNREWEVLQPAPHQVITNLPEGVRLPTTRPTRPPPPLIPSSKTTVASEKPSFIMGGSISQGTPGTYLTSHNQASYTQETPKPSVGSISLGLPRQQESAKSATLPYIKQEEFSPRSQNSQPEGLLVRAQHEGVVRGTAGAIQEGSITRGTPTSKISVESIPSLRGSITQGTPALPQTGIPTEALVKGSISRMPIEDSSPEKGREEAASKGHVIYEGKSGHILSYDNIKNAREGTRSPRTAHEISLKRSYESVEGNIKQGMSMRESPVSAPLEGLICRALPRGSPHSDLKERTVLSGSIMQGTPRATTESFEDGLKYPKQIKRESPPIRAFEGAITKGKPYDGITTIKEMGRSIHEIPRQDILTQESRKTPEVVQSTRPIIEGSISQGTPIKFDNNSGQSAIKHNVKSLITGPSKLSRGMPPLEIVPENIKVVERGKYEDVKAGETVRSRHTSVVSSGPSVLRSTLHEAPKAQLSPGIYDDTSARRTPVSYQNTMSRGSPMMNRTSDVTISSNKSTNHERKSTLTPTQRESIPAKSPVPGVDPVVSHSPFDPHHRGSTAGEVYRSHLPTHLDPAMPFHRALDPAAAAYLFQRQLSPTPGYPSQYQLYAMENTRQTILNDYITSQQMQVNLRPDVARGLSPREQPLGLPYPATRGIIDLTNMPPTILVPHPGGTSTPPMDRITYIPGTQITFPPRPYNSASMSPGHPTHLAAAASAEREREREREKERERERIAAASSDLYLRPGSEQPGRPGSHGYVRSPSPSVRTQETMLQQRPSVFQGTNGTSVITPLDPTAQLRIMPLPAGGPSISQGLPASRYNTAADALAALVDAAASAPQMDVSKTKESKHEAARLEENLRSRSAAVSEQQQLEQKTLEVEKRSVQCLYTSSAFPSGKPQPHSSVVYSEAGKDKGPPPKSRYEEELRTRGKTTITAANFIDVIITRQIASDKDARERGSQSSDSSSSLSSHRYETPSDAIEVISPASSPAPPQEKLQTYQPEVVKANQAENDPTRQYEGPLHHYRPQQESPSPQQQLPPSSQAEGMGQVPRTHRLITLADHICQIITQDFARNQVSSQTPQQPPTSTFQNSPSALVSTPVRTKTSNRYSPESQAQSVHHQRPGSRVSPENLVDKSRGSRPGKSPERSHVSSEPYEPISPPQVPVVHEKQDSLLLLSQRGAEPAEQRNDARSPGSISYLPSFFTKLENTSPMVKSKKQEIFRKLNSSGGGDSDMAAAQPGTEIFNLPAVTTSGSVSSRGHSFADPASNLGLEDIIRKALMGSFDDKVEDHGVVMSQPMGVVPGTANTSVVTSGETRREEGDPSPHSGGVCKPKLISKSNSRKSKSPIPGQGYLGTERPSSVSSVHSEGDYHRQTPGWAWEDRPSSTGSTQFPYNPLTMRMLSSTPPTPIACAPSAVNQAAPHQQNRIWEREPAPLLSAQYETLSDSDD

How the values were obtained:
[1] = molecular target: GAL4-fused zinc-finger DNA binding domain of FBI-1 (human) (UniProt O95365); assay: two-hybrid; mammalian two-hybrid in HEK293 cells: GAL4 fused FBI-1-ZF, VP-16 fused co-repressors, reporter plasmid, with or without MBD3 expression vector
[2] = molecular target: GST-fused zinc-finger DNA-binding domain of FBI-1 (human) (UniProt O95365); assay: pull-down; recombinant GST fusion proteins incubated with in vitro synthesized [35S]-methionine-labelled MBD3, precipitated, 10% SDS-PAGE, autoradiography; only the target purified

| binding [1] | binding [2] | Substance |
| --- | --- | --- |
| binds |  | VP16-fused BCL-6 corepressor (BCoR) (from UniProt Q6W2J9 1-1755) |
|  | binds | in vitro synthesized [35S]-methionine-labelled MBD3 (from UniProt O95983-2 1-259) |
| binds |  | VP16-fused nuclear receptor corepressor (NCoR) (from UniProt O75376 1-2440) |
